Article PMC9199852
Results are given in words; binding and its absence hold for the method and conditions named. For some of these results: Binding can be weak; no strength is given.

How the values were obtained:
Assay in all cases: two-hybrid; Matchmaker Gold Yeast Two-Hybrid System, yeast strain Y2HGold; TaPR1-4 and its variants in pGBKT7 as bait, TaTLP1 in pGADT7 as prey; growth and blue colour on SD/-Trp-Leu-His-Ade with X-α-Gal and aureobasidin A
[1] = molecular target: TaPR1-4 (Triticum aestivum (wheat)) (UniProt Q94F73)
[2] = molecular target: CΔ128–164-TaPR1-4 (+αIV) (Triticum aestivum (wheat)) (UniProt Q94F73)
[3] = molecular target: TaPR1-4 A115R (Triticum aestivum (wheat)) (UniProt Q94F73)
[4] = molecular target: CΔ119–164-TaPR1-4 (-αIV) (Triticum aestivum (wheat)) (UniProt Q94F73)
[5] = molecular target: TaPR1-4 V118S (Triticum aestivum (wheat)) (UniProt Q94F73)
[6] = molecular target: CΔ143–164-TaPR1-4 (Triticum aestivum (wheat)) (UniProt Q94F73)
[7] = molecular target: TaPR1-4 G116A (Triticum aestivum (wheat)) (UniProt Q94F73)
[8] = molecular target: CΔ113–164-TaPR1-4 (Triticum aestivum (wheat)) (UniProt Q94F73)
[9] = molecular target: TaPR1-4 K117A (Triticum aestivum (wheat)) (UniProt Q94F73)
[10] = molecular target: TaPR1-4 A114S (Triticum aestivum (wheat)) (UniProt Q94F73)

TaTLP1 (from UniProt A0A075TS47)
binding [1]: binds
binding [2]: binds
binding [3]: binds
binding [4]: binds weakly
binding [5]: binds
binding [6]: binds
binding [7]: binds
binding [8]: no binding
binding [9]: binds
binding [10]: binds
